PubChem BioAssay AID1508600 (Functional Genomics Laboratory (NCATS/FGL), 2020)
Screen size: about 53,000 sequences; about 3,700 (7%) were called active.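 How the source made its calls: active means gene knockdowns whose robust z-score for IL-1 alpha signal is at least 2 or at most -2, so actives lie on both sides; inactive means the rest.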 Some of the results follow.

Experiment: Components of the Cytosolic LPS Sensing Pathway: Gene Identification via Genome-wide siRNA Screen;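 further: robust z of the log signal after scaling to non-targeting control siRNA wells of the plate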
Conditions: RAW264.7 macrophages, IL-1a HTRF, actives lie on both sides, screened at 100 nM (by protocol), cells primed 5 h with Pam3CSK4 first
Method in brief: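 Mouse macrophage line RAW264.7 is transfected with siRNA (100 nM final), grown 48h, primed with TLR ligand Pam3CSK4 5 h and given intracellular LipidA 24 h. IL-1a in supernatant is read by HTRF and viability by luminescence.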

Question: For CCUAAGGUUGUCUGUAAAUTT against Ndufs3, which z-score is on record?
Answer: Its z-score is inactive: -0.136.

Question: With GGUUCUGACUUGAGAAAACTT against Clba1 as the sequence, how does the z-score read?
Answer: The z-score was inactive: 1.41.

Question: For GCACCUAGUAUUGAAAGUCTT against Ccna2, which z-score is on record?
Answer: Its z-score is inactive: 0.229.

Question: For CGCGAUAACGAAGAACAAUTT against Tmod3, which z-score is on record?
Answer: The z-score was inactive: 1.78.

Question: Which z-score does the source give for GGACUGUUUUGAGAAUUGATT against Vil1 here?
Answer: The z-score was inactive: -0.984.

Question: For GGUACUAUUAACAAACACUTT against Mtmr10, which z-score is on record?
Answer: The z-score was inactive: -1.78.

Question: For UUUUCACCGAACAAAGAACTT against Slc25a47, which z-score is on record?
Answer: Its z-score is inactive: 0.833.

Question: Which z-score does the source give for GGUCACUGUCAUCAACAGATT against Il6st here?
Answer: Its z-score is inactive: -1.17.

Question: With GGAGGACAUUGAUGUGAUGTT against Sag as the sequence, how does the z-score read?
Answer: Its z-score is inactive: 0.179.

Question: For GGCUAUGGGAAUCAUGAAUTT against H2bc18, which z-score is on record?
Answer: Its z-score is active: -2.84.

Question: For CCGAACAGAGGAAGAAGGCTT against Olfr816, which z-score is on record?
Answer: Its z-score is inactive: 0.281.

Question: Which z-score does the source give for CCUCUGCCCAUUAUCGAAGTT against Cyp2c23 here?
Answer: The z-score was inactive: -0.225.

Question: With CCCGAGAAACCUGGAGUCUTT against Klk8 as the sequence, how does the z-score read?
Answer: Its z-score is inactive: -1.88.

Question: With GCUCUACAUGUUUAUCACATT against Olfr311 as the sequence, how does the z-score read?
Answer: The z-score was inactive: -1.03.

Question: With GCACUAAAACCCAAUCAGATT against Fmnl3 as the sequence, how does the z-score read?
Answer: Its z-score is inactive: 1.01.

Question: Which z-score does the source give for CCGUAAAAAAUUCUGUAAGTT against Ube2l3 here?
Answer: The z-score was inactive: 0.475.

Question: Which z-score does the source give for “GGAACACACAAUUUUAUCATT against 4933436I01Rik” here?
Answer: Its z-score is active: -2.98.

Question: Which z-score does the source give for GGAAUGGAAUACAAAGUCATT against Isg20l2 here?
Answer: The z-score was inactive: -0.305.

Question: With UUGGGAAAACCAUGAUGCATT against Romo1 as the sequence, how does the z-score read?
Answer: The z-score was inactive: -0.242.

Question: With “GCCGUAAGCUAGGAUCUGGTT against 1700065D16Rik” as the sequence, how does the z-score read?
Answer: The z-score was inactive: 0.787.

Question: With “GAAAUGUACCUGCCUUUUCTT against D830030K20Rik” as the sequence, how does the z-score read?
Answer: Its z-score is inactive: 0.613.

Question: With GGUGAUAUGCAUGAAAAUGTT against Jpt1 as the sequence, how does the z-score read?
Answer: Its z-score is inactive: -0.657.

Question: For CCGGAAAACAAAAUUGCUATT against Obp1a, which z-score is on record?
Answer: The z-score was inactive: 0.492.

Question: With GCUAUUGCCUCAUCUUAUGTT against Olfr654 as the sequence, how does the z-score read?
Answer: Its z-score is inactive: 1.65.

Question: With CAAUAACAGCGAAACAUCCTT against Scn4b as the sequence, how does the z-score read?
Answer: The z-score was inactive: 0.0989.

Question: With GGACAUGUGUCCAGUUUUCTT against Sspn as the sequence, how does the z-score read?
Answer: Its z-score is inactive: -0.255.

Question: Which z-score does the source give for GGAGUUAAAAGAUGUAAUCTT against Pikfyve here?
Answer: The z-score was inactive: 0.636.

Question: Which z-score does the source give for GCUUCAAGUGAGUCUCACUTT against Nup35 here?
Answer: Its z-score is inactive: 0.347.

Question: Which z-score does the source give for GGAGAACAUUCAAAAUACGTT against Sgo2a here?
Answer: Its z-score is inactive: 0.827.
